# Reference: PubChem BioAssay (NCATS)
# “And” between values parts separate entries of the source, which are not always exact repeats. Identical values can stand only once. Inconclusive results, whose numbers are uncertain, are shown with a selection of clear calls. For some of these results: Potencies of inconclusive entries are doubtful fits and often do not repeat. The source made the active and inactive calls. Unless noted, calls come from the whole dose curve.
# How the values were obtained:
# [1] = qHTS assay to identify small molecules that stimulate interleukin-8 (IL-8) secretion (AID 651758; active = well fitted activation curve with a large enough effect in the signal ratio; inconclusive = small, poorly fitted or top-dose-only effect, or effect the other way, or a change in a side signal; the % refers to the signal ratio; note: potency is the fitted concentration of half-maximal effect); details: HTRF ratio (665/615); series mostly up to 92.2 µM
# How it was run: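 THP-1, 2000 cells/well; cpd 16 h, 37 C; add cryptate + XL665 anti-IL-8 Abs; RT 1-3 h; TR-FRET read.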
# [2] = target: Ubiquitin carboxyl-terminal hydrolase 2 (Homo sapiens) (UniProt O75604); assay: qHTS for Inhibitors of Ubiquitin-specific Protease USP2a Using CHOP2 as the Reporter: K484 Substrate (AID 652173; active = well fitted curve in the direction sought with a large enough effect; inconclusive = small, poorly fitted or top-dose-only effect, or another doubt; inactive = no such curve, though single readings can be large; an effect the other way counts as inactive or inconclusive;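 note: cleavage of internally quenched K48 di-ubiquitin substrate measured as rising fluorescence over time; nearly all actives have a fitted effect of over 70% in size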; note: potency is the fitted concentration of half-maximal effect)
# How it was run: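 USP2 (dispensed at 5 nM) was pinned with compounds, then DiUb K48 internally quenched fluorescent substrate (dispensed at 100 nM) was added. The buffer was 20 mM Tris pH 8, 2 mM beta-mercaptoethanol and 0.05% CHAPS. Cleavage was read kinetically as rising fluorescence, Ex 525/Em 598.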
# [3] = qHTS Assay for Identifying Gametocytocidal Compounds (AID 743244; active = well fitted curve in the direction sought with a large enough effect; inconclusive = small, poorly fitted or top-dose-only effect, or another doubt; inactive = no such curve, though single readings can be large; an effect the other way counts as inactive or inconclusive; note: potency is the fitted concentration of half-maximal effect); details: P. falciparum 3D7 stage III-V gametocytes, alamarBlue, 72 h; max response: stronger effect = lower value
# How it was run: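 Late gametocytes (III–V), P. falciparum 3D7; 72 h drug, then 24 h alamarBlue; resazurin reduction read by fluorescence.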
# [4] = qHTS for differential inhibitors of proliferation of Plasmodium falciparum line GB4 (AID 1816; active = well fitted curve in the direction sought with a large enough effect; inconclusive = small, poorly fitted or top-dose-only effect, or another doubt; inactive = no such curve, though single readings can be large; an effect the other way counts as inactive or inconclusive;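 note: potency is the fitted concentration of half-maximal effect; parasite growth measured after 72 h incubation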); details: Potency: Plasmodium falciparum GB4 proliferation inhibition
# [5] = qHTS for differential inhibitors of proliferation of Plasmodium falciparum line D10 (AID 1877; active = well fitted curve in the direction sought with a large enough effect; inconclusive = small, poorly fitted or top-dose-only effect, or another doubt; inactive = no such curve, though single readings can be large; an effect the other way counts as inactive or inconclusive;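 note: potency is the fitted concentration of half-maximal effect; parasites grown with compound for 72 h before DNA staining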)
# [6] = qHTS for differential inhibitors of proliferation of Plasmodium falciparum line W2 (AID 1883; active = well fitted curve in the direction sought with a large enough effect; inconclusive = small, poorly fitted or top-dose-only effect, or another doubt; inactive = no such curve, though single readings can be large; an effect the other way counts as inactive or inconclusive;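 note: potency is the fitted concentration of half-maximal effect; parasites grown with compound for 72 h before lysis and staining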); details: Potency: Plasmodium falciparum W2 proliferation inhibition
# [7] = qHTS for differential inhibitors of proliferation of Plasmodium falciparum line HB3 (AID 1886; active = well fitted curve in the direction sought with a large enough effect; inconclusive = small, poorly fitted or top-dose-only effect, or another doubt; inactive = no such curve, though single readings can be large; an effect the other way counts as inactive or inconclusive;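 note: potency is the fitted concentration of half-maximal effect; parasites grown with compound for 72 h before SYBR Green readout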); details: Potency: Plasmodium falciparum HB3 proliferation inhibition
# [8] = Validation screen for small molecules that induce DNA re-replication in MCF 10A normal breast cells (AID 463097; active = well fitted curve in the direction sought with a large enough effect; inconclusive = small, poorly fitted or top-dose-only effect, or another doubt; inactive = no such curve, though single readings can be large; an effect the other way counts as inactive or inconclusive; note: potency is the fitted concentration of half-maximal effect; nearly all actives have a fitted effect of over 60% in size)
# How it was run: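 Readout: Hoechst nuclear fluorescence intensity, 405 ex / 500-530 em, by scanning plate imager; re-replication scored as increase in nuclei with elevated DNA content. Cells exposed to compound 48 hr, 37 C, 5% CO2 beforehand.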
# [9] = Validation screen for small molecules that induce genotoxicity in human embryonic kidney (HEK293T) cells expressing luciferase-tagged ELG1 (AID 493106; active = well fitted curve in the direction sought with a large enough effect; inconclusive = small, poorly fitted or top-dose-only effect, or another doubt; inactive = no such curve, though single readings can be large; an effect the other way counts as inactive or inconclusive; note: potency is the fitted concentration of half-maximal effect)
# How it was run: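 Reporter-gene quantitative HTS in HEK293T cells carrying luciferase-tagged ELG1, whose level climbs under genotoxic stress. Compound exposure lasts 16 hr at 37 °C before luciferase detection.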
# [10] = target: Arylsulfatase A (Homo sapiens) (UniProt P15289); assay: qHTS screen for enhancers of Arylsulfatase A (ASA1): LOPAC Validation Assay (AID 720538; active = well fitted curve in the direction sought with a large enough effect; inconclusive = small, poorly fitted or top-dose-only effect, or another doubt; inactive = no such curve, though single readings can be large; an effect the other way counts as inactive or inconclusive; note: potency is the fitted concentration of half-maximal effect)
# How it was run: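 SV40-transformed skin fibroblasts from an MLD patient (ASA-I179S) were treated with compounds for 48h at 37 degree C, then lysed with 0.5mM pNCS final substrate for 14h at room temperature; NaOH stop, fluorescence read (Ex=525 nm; Em=598 nm).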
# [11] = qHTS for Inhibitors of the Functional Ribonucleoprotein Complex (vRNP) of Lassa (LASV) Arenavirus: Viability assay - alamar blue signal for LASV Primary Screen (AID 1347083; calls by dose curve; tested in HEK293 reporter line; note: nearly all actives have a fitted effect of over 80% in size; note: potency is the fitted concentration of half-maximal effect); details: cell viability, alamar blue fluorescence (LASV minigenome counter-screen); series mostly up to 57.5 µM
# [12] = target: Nucleoprotein (Lymphocytic choriomeningitis virus (strain Armstrong)) (UniProt P09992); assay: qHTS for Inhibitors of the Functional Ribonucleoprotein Complex (vRNP) of Lymphocytic Choriomeningitis Arenaviruses (LCMV): LCMV Primary Screen - GLuc reporter signal (AID 1347086); details: LCMV minigenome vRNP cell assay, Gaussia luciferase reporter; activity change, negative = inhibition: at 57.5 µM (top of the series) unless noted; note: nearly all actives have a fitted effect of over 70% in size; note: potency is the fitted concentration of half-maximal effect
# [13] = Primary qHTS for inhibitors of SARS-S pseudo-typed particle cell entry (AID 1479145); details: outcome: dose series up to 57.1 µM unless noted; note: nearly all actives have a fitted effect of over 45% in size; note: potency is the fitted concentration of half-maximal effect
# [14] = Primary qHTS to identify inhibitors of SARS-CoV-2 cell entry (AID 1645846); details: activity change, negative = inhibition: at 57.1 µM (top of the series); note: potency is the fitted concentration of half-maximal effect; nearly all actives have a fitted effect of over 45% in size
# How it was run: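 Luminescence readout (Bright-Glo luciferase) 48 h after pseudoparticle addition. HEK293-ACE2 cells, 1500/well; compound pre-incubation 1 h; Normalized to spike PP and bald PP.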
# [15] = Cytotoxicity counterscreen for inhibitors of SARS-CoV-2 cell entry (AID 1645845); details: activity change, negative = cytotoxicity: at 57.1 µM (top of the series) unless noted; note: nearly all actives have a fitted effect of over 50% in size
# How it was run: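 Expi293F/hACE2 cells seeded overnight; cpd pin-transferred in DMSO, 1 h preincubation, + media, 48 h 37 C 5% CO2; ATPLite 1step luminescence; normalized to cells and no cells.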
# [16] = Primary qHTS for Huh7 cytotoxicity: counterscreen for inhibitors of MERS-S pseudotyped particle cell entry (AID 1479147); details: activity change, negative = cytotoxicity: at 57.1 µM (top of the series) unless noted; note: potency is the fitted concentration of half-maximal effect
# [17] = Validation screen for inhibitors of Lassa infection (AID 463096); note: potency is the fitted concentration of half-maximal effect
# [18] = Primary qHTS for Vero E6 cytotoxicity: counterscreen for inhibitors of SARS-S pseudo-typed particle cell entry (AID 1479150); details: activity change, negative = cytotoxicity: at 57.1 µM (top of the series) unless noted
# [19] = Primary qHTS for inhibitors of MERS-S pseudo-typed particle cell entry (AID 1479149); details: outcome: dose series up to 57.1 µM unless noted; note: potency is the fitted concentration of half-maximal effect; nearly all actives have a fitted effect of over 60% in size
compound,measurement,setting,value
Cc1cc(NS(=O)(=O)c2ccc(N)cc2)no1,Potency,[1],"inconclusive: 66.8 µM [inhibitor, partial curve]"
same,Potency,[2],"inactive and inconclusive: 43.2 µM [inhibitor, single point]"
C[C@@H]1CN(CCCn2c3ccccc3c3ccccc32)C[C@H](C)N1,Potency,[3],"inconclusive: 20 µM [inhibitor, single point]"
O=C1OC(=O)C2C3CCC(O3)C12 (configuration not stated),Potency,[4],"inconclusive: 11.2 µM [inhibitor, partial curve]"
same,Potency,[5],"inconclusive: 12.6 µM [inhibitor, partial curve]"
same,Potency,[6],"inconclusive: 14.1 µM [inhibitor, partial curve]"
same,Potency,[7],"inconclusive: 12.6 µM [inhibitor, partial curve, poor fit]"
same,Potency,[8],"inconclusive: 11.2 µM [activator, partial curve]"
same,Potency,[9],"inconclusive: 18.3 µM [activator, single point]"
same,Potency,[10],"inconclusive: 0.849 µM [activator, full curve, poor fit]"
same,Potency,[11],"inconclusive: 25.1 µM [inhibitor, partial curve, poor fit]"
same,Potency,[12],"inconclusive: 35.5 µM [inhibitor, single point]"
N#CC(c1ccnc(NCCc2cccnc2)n1)c1nc2ccccc2s1 (configuration not stated),Potency,[11],"inconclusive: 19.3 µM [inhibitor, partial curve, poor fit]"
same,Potency,[12],"inconclusive: 54.4 µM [inhibitor, single point]"
O=C(Oc1ccccc1)c1ccccc1C(=O)Oc1ccccc1,Potency,[11],inactive
same,Potency,[12],inactive
Cc1cnc(C(=O)NCCc2ccc(S(=O)(=O)NC(=O)NC3CCCCC3)cc2)cn1,Potency,[11],"inconclusive: 24.3 µM [inhibitor, partial curve, poor fit]"
same,Potency,[12],inactive
same,Potency,[13],inactive
same,Potency,[14],"inconclusive: 17.8 µM [inhibitor, partial curve, poor fit]"
CC(C=CC=C(C)C=CC1=C(C)CCCC1(C)C)=CC=CC=C(C)C=CC=C(C)C=CC1=C(C)CCCC1(C)C,Potency,[11],inactive
same,Potency,[12],inactive
same,outcome,[15],inactive [at 0.702 µM]
Nc1ccc(S(=O)(=O)Nc2ncccn2)cc1,Potency,[11],"inconclusive: 48.5 µM [inhibitor, single point]"
same,Potency,[12],inactive
COC1=CC(=O)C[C@@H](C)[C@]12Oc1c(Cl)c(OC)cc(OC)c1C2=O,Potency,[11],"inconclusive: 31.6 µM [inhibitor, partial curve, poor fit]"
same,Potency,[12],"inconclusive: 15.8 µM [inhibitor, partial curve]"
same,Potency,[13],"inconclusive: 8.91 µM [inhibitor, full curve, poor fit]"
same,Potency,[16],"inconclusive: 17.8 µM [cytotoxic, partial curve, poor fit]"
same,Potency,[15],inactive
same,Potency,[14],"inconclusive: 17.8 µM [inhibitor, partial curve, poor fit]"
O=C(Nc1ccccc1)c1cc([N+](=O)[O-])ccc1Cl,Potency,[17],"inconclusive: 1 µM [activator, full curve]"
same,Potency,[11],"inconclusive: 39.8 µM [inhibitor, single point]"
same,Potency,[12],"inconclusive: 25.1 µM [inhibitor, partial curve, poor fit]"
CC(=O)O[C@@H]1C(=O)O[C@@H]2[C@H]1OC(=O)[C@@H]2OC(C)=O,Potency,[11],inactive
same,Potency,[12],inactive
same,Potency,[13],inactive
same,Potency,[18],inactive
NS(=O)(=O)OC[C@@H]1C[C@@H](n2ccc3c(N[C@H]4CCc5ccccc54)ncnc32)C[C@H]1O,Potency,[11],"inconclusive: 1.53 µM [inhibitor, partial curve]"
same,Potency,[12],"inconclusive: 27.3 µM [inhibitor, partial curve, poor fit]"
CCC(Cc1c(I)cc(I)c(N)c1I)C(=O)O (configuration not stated),Potency,[11],inactive
same,Potency,[12],inactive
same,Potency,[13],inactive
C[C@H](CN1CCCC1)C(=O)c1ccc(C(F)(F)F)cc1,Potency,[11],inactive
same,Potency,[12],inactive
same,Potency,[19],"inconclusive: 1.41 µM [inhibitor, full curve, poor fit]"
CS(=O)(=O)c1ccc([C@@H](O)[C@@H](CO)NC(=O)C(Cl)Cl)cc1,Potency,[11],"inconclusive: 54.4 µM [inhibitor, single point]"
same,Potency,[12],"inconclusive: 43.2 µM [inhibitor, partial curve, poor fit]"
same,Potency,[14],"inconclusive: 10 µM [inhibitor, partial curve, poor fit]"
COc1ccnc2c1CCCCC2S(=O)c1nc2ccccc2[nH]1 (configuration not stated),Potency,[11],inactive
same,Potency,[12],inactive
same,Potency,[13],"inconclusive: 39.8 µM [inhibitor, single point]"
